Test results: paper PMC8532385
No constants are given. Whether binding was seen depends on the method and setting. Binding seen in cells or lysates may run through a third protein. Sequences can lack the tags named with a protein.

Sequences of proteins named here, by UniProt entry; tags and fusion partners are left off.
UniProt O00429: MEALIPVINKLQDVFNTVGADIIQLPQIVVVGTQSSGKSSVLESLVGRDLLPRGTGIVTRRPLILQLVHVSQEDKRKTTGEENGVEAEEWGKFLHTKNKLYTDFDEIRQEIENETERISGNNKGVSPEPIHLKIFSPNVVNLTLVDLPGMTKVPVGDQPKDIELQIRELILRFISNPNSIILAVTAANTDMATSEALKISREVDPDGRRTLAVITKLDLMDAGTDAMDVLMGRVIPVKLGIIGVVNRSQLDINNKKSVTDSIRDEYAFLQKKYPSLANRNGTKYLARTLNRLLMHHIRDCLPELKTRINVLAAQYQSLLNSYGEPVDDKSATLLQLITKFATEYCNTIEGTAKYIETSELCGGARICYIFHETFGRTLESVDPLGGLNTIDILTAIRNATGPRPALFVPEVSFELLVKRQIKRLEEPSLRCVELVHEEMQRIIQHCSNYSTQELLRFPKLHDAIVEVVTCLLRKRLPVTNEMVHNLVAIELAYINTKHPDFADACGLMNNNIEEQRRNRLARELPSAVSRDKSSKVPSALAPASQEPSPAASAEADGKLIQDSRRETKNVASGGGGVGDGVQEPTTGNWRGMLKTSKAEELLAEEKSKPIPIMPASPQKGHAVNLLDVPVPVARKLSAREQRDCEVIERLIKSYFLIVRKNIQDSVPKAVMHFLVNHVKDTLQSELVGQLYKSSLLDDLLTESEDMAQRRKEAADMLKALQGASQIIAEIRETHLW

Target: T1, MIEF1^Δ160-169-V5 (Drp1 binding-deficient mutant) (human) (UniProt Q9NQG6)
T1 sequence: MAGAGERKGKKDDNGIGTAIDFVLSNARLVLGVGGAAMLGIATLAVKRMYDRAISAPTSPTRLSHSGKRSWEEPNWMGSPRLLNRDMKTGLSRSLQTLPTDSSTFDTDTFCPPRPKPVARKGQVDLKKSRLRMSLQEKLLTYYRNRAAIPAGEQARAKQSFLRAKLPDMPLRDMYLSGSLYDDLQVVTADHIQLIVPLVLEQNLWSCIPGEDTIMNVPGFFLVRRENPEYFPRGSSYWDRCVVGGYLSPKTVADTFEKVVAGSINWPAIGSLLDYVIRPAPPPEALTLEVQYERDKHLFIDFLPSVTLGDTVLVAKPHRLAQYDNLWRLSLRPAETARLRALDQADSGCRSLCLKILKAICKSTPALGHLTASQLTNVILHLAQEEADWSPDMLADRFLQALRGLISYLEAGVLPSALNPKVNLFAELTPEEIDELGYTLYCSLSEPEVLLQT
Test: co-IP; 293T cells transfected with MIEF1-V5, MIEF1^Δ160-169-V5, MIEF2-V5 or MIEF2^Δ151-160-V5; anti-V5 beads; Western blot (Fig. 5b); crosslinking not mentioned

binding: no binding
Substance: dynamin-related protein 1 (Drp1), endogenous (from UniProt O00429 1-736)
